Results published in patent US20230032473A1, “NAD(H) NANOPARTICLES AND METHODS OF USE” (Wisconsin Alumni Research Foundation, priority 2021, published 2023).
For at least one compound, name, drawing or mass did not settle the structure.

Experiments:
[1] = system: MRSA and P. aeruginosa; assay: CFU detection in polymicrobial blood infection model; assay type: in vivo, mice; details: 12 h after bacterial infection
[2] = system: MRSA and P. aeruginosa; assay: Blood biochemistry and histopathological analysis in polymicrobial infection model; assay type: in vivo, mice

## CO[C@H]1/C=C/O[C@@]2(C)Oc3c(C)c(O)c4c(O)c(c(/C=N/N5CCN(C)CC5)c(O)c4c3C2=O)NC(=O)/C(C)=C\C=C\[C@H](C)[C@H](O)[C@@H](C)[C@@H](O)[C@@H](C)[C@H](OC(C)=O)[C@@H]1C [free Rif, rifampicin]
[1]
  bacterial burden (CFUs) in blood and organs: reduced bacterial burden in most of the organs
[2]; 24 h after bacterial inoculation
  serum ALT, AST, ALP and BUN (organ injury): slightly mitigated the injury
[2]; H&E, TUNEL
  multiple organ injury (histopathological analysis): did not show much efficacy
